pEC50: −log10 of the molar value. At least one peptide structure holds a part that was inferred or is arguable (an end, a ring closure or a residue). Square brackets hold non-standard residues; d marks the D form. Peptide text beside a SMILES is read from it. Tyr(3,5-I2) = N[C@@H](Cc1cc(I)c(O)c(I)c1)C(=O)O; Tyr(3-I) = N[C@@H](Cc1ccc(O)c(I)c1)C(=O)O; Phe(4-F) = N[C@@H](Cc1ccc(F)cc1)C(=O)O; hArg = N=C(N)NCCCC[C@H](N)C(=O)O; Cha = N[C@@H](CC1CCCCC1)C(=O)O
test system: Human platelets; test: Platelet aggregation assay to determine EC50 values for peptides; format: cell-based; settings: washed human platelets, 2×10^8 platelets/ml, 0.2 mg/ml human fibrinogen, 37° C., aggregation monitored 5 min; mean of 3 experiments; read-out: EC50 (concentration required to elicit a 50% maximal aggregation)

| pEC50 | SMILES |
| --- | --- |
| 7.60 | C[C@H](N)C(=O)N[C@@H](Cc1ccc(F)cc1)C(=O)N[C@@H](CCCCNC(=N)N)C(=O)N[C@@H](CC1CCCCC1)C(=O)N[C@@H](CCCCNC(=N)N)C(=O)N[C@@H](Cc1ccc(O)c(I)c1)C(N)=O [Sequence 3] (H-A[Phe(4-F)][hArg][Cha][hArg][Tyr(3-I)]-NH2) |
| 7.52 | C[C@H](N)C(=O)N[C@@H](Cc1ccc(F)cc1)C(=O)N[C@@H](CCCNC(=N)N)C(=O)N[C@@H](CC1CCCCC1)C(=O)N[C@@H](CCCCNC(=N)N)C(=O)N[C@@H](Cc1ccc(O)c(I)c1)C(N)=O [Sequence 1] (H-A[Phe(4-F)]R[Cha][hArg][Tyr(3-I)]-NH2) |
| 7.05 | C[C@H](N)C(=O)N[C@@H](Cc1ccc(F)cc1)C(=O)N[C@@H](CCCCNC(=N)N)C(=O)N[C@@H](CC1CCCCC1)C(=O)N[C@@H](CCCCNC(=N)N)C(=O)N[C@@H](Cc1cc(I)c(O)c(I)c1)C(N)=O [Sequence 4] (H-A[Phe(4-F)][hArg][Cha][hArg][Tyr(3,5-I2)]-NH2) |
| 6.82 | C[C@H](N)C(=O)N[C@@H](Cc1ccc(F)cc1)C(=O)N[C@@H](CCCNC(=N)N)C(=O)N[C@@H](CC1CCCCC1)C(=O)N[C@@H](CCCCNC(=N)N)C(=O)N[C@@H](Cc1cc(I)c(O)c(I)c1)C(N)=O [Sequence 2] (H-A[Phe(4-F)]R[Cha][hArg][Tyr(3,5-I2)]-NH2) |
